Laboratory results published in paper PMC8327268.
These are yes or no findings as the source states them, for the method shown. Binding seen in cells or lysates may run through a third protein. Some results given as binding are weak or reduced against the parent protein; the word gives no strength.

The chains behind the UniProt entries cited, without tags or fusion partners.
UniProt Q7TQN4: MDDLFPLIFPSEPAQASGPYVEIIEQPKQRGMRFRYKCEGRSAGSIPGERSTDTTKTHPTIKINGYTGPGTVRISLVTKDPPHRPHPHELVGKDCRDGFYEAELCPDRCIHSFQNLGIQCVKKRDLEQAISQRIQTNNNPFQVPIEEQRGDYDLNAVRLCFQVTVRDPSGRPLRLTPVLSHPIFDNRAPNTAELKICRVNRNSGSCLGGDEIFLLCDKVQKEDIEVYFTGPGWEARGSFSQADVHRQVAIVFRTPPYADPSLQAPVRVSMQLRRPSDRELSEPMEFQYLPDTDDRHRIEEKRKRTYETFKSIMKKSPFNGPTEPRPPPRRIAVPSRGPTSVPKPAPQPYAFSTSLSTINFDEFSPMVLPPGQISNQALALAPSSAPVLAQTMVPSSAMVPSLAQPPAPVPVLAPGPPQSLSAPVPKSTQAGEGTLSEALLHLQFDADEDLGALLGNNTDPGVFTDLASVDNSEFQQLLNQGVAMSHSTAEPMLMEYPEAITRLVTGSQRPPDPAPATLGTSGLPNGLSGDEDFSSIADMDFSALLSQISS

Biological target: T1, integrin-associated protein (CD47) (rat (endogenous in H9c2)) (UniProt P97829)
T1 sequence: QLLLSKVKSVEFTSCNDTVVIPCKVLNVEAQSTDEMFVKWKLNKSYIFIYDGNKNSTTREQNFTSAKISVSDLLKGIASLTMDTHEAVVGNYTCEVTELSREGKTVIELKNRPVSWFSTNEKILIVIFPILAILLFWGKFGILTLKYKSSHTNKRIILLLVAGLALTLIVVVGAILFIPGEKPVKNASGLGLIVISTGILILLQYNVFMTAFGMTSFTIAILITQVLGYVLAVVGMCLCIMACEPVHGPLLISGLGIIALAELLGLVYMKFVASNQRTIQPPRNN
Test: co-IP; H9c2 whole-cell lysates (RIPA buffer) incubated with anti-CD47 or anti-p65 at 4°C for 12 h, then protein A/G magnetic beads for 2 h; three washes with cold PBS; western blot; cells also treated with a GSK-3β inhibitor (the paper says it weakens the interaction)

binding: binds
Substance: p65 NF-κB (from UniProt Q7TQN4 1-550)
